Results are given in words; binding and its absence hold for the method and conditions named. Binding seen in cells or lysates may run through a third protein. Here binding means that the protein was enriched with, or labelled near, the bait; the list need not be complete.
Biological target: T1, DRAP1 (DR1-associated corepressor), endogenous (human (endogenous in THP-1)) (UniProt Q14919)
T1 sequence: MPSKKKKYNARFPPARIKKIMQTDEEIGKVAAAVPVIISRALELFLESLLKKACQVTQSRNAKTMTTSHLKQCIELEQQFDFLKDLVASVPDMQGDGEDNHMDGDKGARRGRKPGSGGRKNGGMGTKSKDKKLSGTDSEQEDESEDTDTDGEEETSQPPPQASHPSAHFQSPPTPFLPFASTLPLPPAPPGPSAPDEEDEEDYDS
Assay: affinity purification with mass spectrometry; IP of endogenous RPL35 and DRAP1 from THP-1 macrophages infected with HIV-1 (SERINC5+), 24 h postinfection; cells cross-linked with DSS (10 μg/mL, 30 min), lysed in nondenaturing RIPA buffer, antibody-conjugated protein G beads 3 h; in-gel trypsinization, LC-MS, Mascot

The chains behind the UniProt entries cited, without tags or fusion partners.
UniProt O60942: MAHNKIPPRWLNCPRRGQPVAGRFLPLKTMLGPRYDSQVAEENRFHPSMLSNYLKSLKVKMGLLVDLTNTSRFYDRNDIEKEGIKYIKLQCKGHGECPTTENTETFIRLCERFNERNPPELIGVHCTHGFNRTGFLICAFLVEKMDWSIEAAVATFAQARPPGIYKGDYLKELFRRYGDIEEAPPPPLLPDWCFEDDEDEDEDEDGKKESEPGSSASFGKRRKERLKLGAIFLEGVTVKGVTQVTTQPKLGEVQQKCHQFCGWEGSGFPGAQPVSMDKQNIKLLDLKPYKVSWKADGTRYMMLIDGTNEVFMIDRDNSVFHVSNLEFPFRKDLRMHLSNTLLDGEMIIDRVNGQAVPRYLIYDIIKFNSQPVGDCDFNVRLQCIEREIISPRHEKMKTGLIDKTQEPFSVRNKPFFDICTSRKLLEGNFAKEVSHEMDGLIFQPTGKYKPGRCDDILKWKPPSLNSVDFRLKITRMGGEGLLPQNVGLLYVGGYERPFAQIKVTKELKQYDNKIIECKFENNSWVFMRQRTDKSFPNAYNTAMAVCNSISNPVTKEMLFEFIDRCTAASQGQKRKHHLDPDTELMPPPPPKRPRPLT

- binding: binds
Substance: mammalian capping enzyme (MCE1), endogenous (from UniProt O60942 1-597)
